Data as given in ChEMBL document CHEMBL4316593 (Eur J Med Chem, 2019).
This continues a long series; more values of the same kind are listed elsewhere.

Columns and labels:
Format in all cases: cell-based
Details in all cases: U-87MG ATCC
[1] = Inhibition of RTK/PI3K/AKT/mTOR signaling in human U87 cells assessed as up regulation of ATPase H+ transporting V0 subunit a1 gene expression at cytotoxic IC50 measured after 48 hrs relative to control
[2] = Inhibition of RTK/PI3K/AKT/mTOR signaling in human U87 cells assessed as down regulation of TRAF4 gene expression at cytotoxic IC50 measured after 48 hrs relative to control
[3] = Inhibition of RTK/PI3K/AKT/mTOR signaling in human U87 cells assessed as up regulation of CYTH4 gene expression at cytotoxic IC50 measured after 48 hrs relative to control
[4] = Inhibition of RTK/PI3K/AKT/mTOR signaling in human U87 cells assessed as down regulation of LMNB1 gene expression at cytotoxic IC50 measured after 48 hrs relative to control
[5] = Inhibition of RTK/PI3K/AKT/mTOR signaling in human U87 cells assessed as down regulation of ORC1 gene expression at cytotoxic IC50 measured after 48 hrs relative to control
[6] = Inhibition of RTK/PI3K/AKT/mTOR signaling in human U87 cells assessed as down regulation of PRKACA gene expression at cytotoxic IC50 measured after 48 hrs relative to control
[7] = Inhibition of RTK/PI3K/AKT/mTOR signaling in human U87 cells assessed as down regulation of PSMD13 gene expression at cytotoxic IC50 measured after 48 hrs relative to control
[8] = Inhibition of RTK/PI3K/AKT/mTOR signaling in human U87 cells assessed as up regulation of HECT and RLD domain containing E3 ubiquitin protein ligase 3 gene expression at cytotoxic IC50 measured after 48 hrs relative to control
[9] = Inhibition of RTK/PI3K/AKT/mTOR signaling in human U87 cells assessed as down regulation of SNN gene expression at cytotoxic IC50 measured after 48 hrs relative to control
[10] = Inhibition of RTK/PI3K/AKT/mTOR signaling in human U87 cells assessed as down regulation of SNX7 gene expression at cytotoxic IC50 measured after 48 hrs relative to control
[11] = Inhibition of RTK/PI3K/AKT/mTOR signaling in human U87 cells assessed as up regulation of ARHGAP18 gene expression at cytotoxic IC50 measured after 48 hrs relative to control
[12] = Inhibition of RTK/PI3K/AKT/mTOR signaling in human U87 cells assessed as up regulation of lysine demethylase 3A gene expression at cytotoxic IC50 measured after 48 hrs relative to control
[13] = Inhibition of RTK/PI3K/AKT/mTOR signaling in human U87 cells assessed as down regulation of WBP11 gene expression at cytotoxic IC50 measured after 48 hrs relative to control
[14] = Inhibition of RTK/PI3K/AKT/mTOR signaling in human U87 cells assessed as down regulation of ZNF609 gene expression at cytotoxic IC50 measured after 48 hrs relative to control
[15] = Inhibition of RTK/PI3K/AKT/mTOR signaling in human U87 cells assessed as down regulation of TMX4 gene expression at cytotoxic IC50 measured after 48 hrs relative to control
[16] = Inhibition of RTK/PI3K/AKT/mTOR signaling in human U87 cells assessed as up regulation of ENO2 gene expression at cytotoxic IC50 measured after 48 hrs relative to control
[17] = Inhibition of RTK/PI3K/AKT/mTOR signaling in human U87 cells assessed as down regulation of STX11 gene expression at cytotoxic IC50 measured after 48 hrs relative to control
[18] = Inhibition of RTK/PI3K/AKT/mTOR signaling in human U87 cells assessed as up regulation of programmed cell death 4 gene expression at cytotoxic IC50 measured after 48 hrs relative to control
[19] = Inhibition of RTK/PI3K/AKT/mTOR signaling in human U87 cells assessed as down regulation of RELB gene expression at cytotoxic IC50 measured after 48 hrs relative to control
[20] = Inhibition of RTK/PI3K/AKT/mTOR signaling in human U87 cells assessed as up regulation of potassium channel tetramerization domain containing 15 gene expression at cytotoxic IC50 measured after 48 hrs relative to control
[21] = Inhibition of RTK/PI3K/AKT/mTOR signaling in human U87 cells assessed as up regulation of adrenomedullin gene expression at cytotoxic IC50 measured after 48 hrs relative to control
[22] = Inhibition of RTK/PI3K/AKT/mTOR signaling in human U87 cells assessed as up regulation of OTU deubiquitinase, ubiquitin aldehyde binding 2 gene expression at cytotoxic IC50 measured after 48 hrs relative to control
[23] = Inhibition of RTK/PI3K/AKT/mTOR signaling in human U87 cells assessed as down regulation of IFRD1 gene expression at cytotoxic IC50 measured after 48 hrs relative to control
[24] = Inhibition of RTK/PI3K/AKT/mTOR signaling in human U87 cells assessed as down regulation of KNL1 gene expression at cytotoxic IC50 measured after 48 hrs relative to control
[25] = Inhibition of RTK/PI3K/AKT/mTOR signaling in human U87 cells assessed as down regulation of TNPO3 gene expression at cytotoxic IC50 measured after 48 hrs relative to control
[26] = Inhibition of RTK/PI3K/AKT/mTOR signaling in human U87 cells assessed as up regulation of TNFRSF18 gene expression at cytotoxic IC50 measured after 48 hrs relative to control
[27] = Inhibition of RTK/PI3K/AKT/mTOR signaling in human U87 cells assessed as up regulation of plexin B1 gene expression at cytotoxic IC50 measured after 48 hrs relative to control
[28] = Inhibition of RTK/PI3K/AKT/mTOR signaling in human U87 cells assessed as down regulation of CDKN3 gene expression at cytotoxic IC50 measured after 48 hrs relative to control
[29] = Inhibition of RTK/PI3K/AKT/mTOR signaling in human U87 cells assessed as up regulation of DDX46 gene expression at cytotoxic IC50 measured after 48 hrs relative to control
[30] = Inhibition of RTK/PI3K/AKT/mTOR signaling in human U87 cells assessed as up regulation of alpha kinase 1 gene expression at cytotoxic IC50 measured after 48 hrs relative to control
[31] = Inhibition of RTK/PI3K/AKT/mTOR signaling in human U87 cells assessed as up regulation of zinc finger protein 608 gene expression at cytotoxic IC50 measured after 48 hrs relative to control
[32] = Inhibition of RTK/PI3K/AKT/mTOR signaling in human U87 cells assessed as down regulation of HECW2 gene expression at cytotoxic IC50 measured after 48 hrs relative to control

Question: What does the source list for `CC(=O)C(=NNc1ccccc1C#N)C(C)=O`?
Answer: log2FC [1]: 0.731; log2FC [2]: -1.11; log2FC [3]: 2.31; log2FC [4]: -0.796; log2FC [5]: -0.923; log2FC [6]: -0.423; log2FC [7]: -0.432; log2FC [8]: 1.01; log2FC [9]: -0.834; log2FC [10]: -0.839; log2FC [11]: 1.64; log2FC [12]: 1.32; log2FC [13]: -0.439; log2FC [14]: -0.472; log2FC [15]: -1.03; log2FC [16]: 1.69; log2FC [17]: -3.46; log2FC [18]: 0.731; log2FC [19]: -0.801; log2FC [20]: 0.912; log2FC [21]: 1.29; log2FC [22]: 1.54; log2FC [23]: -0.945; log2FC [24]: -1.11; log2FC [25]: -0.522; log2FC [26]: 1.87; log2FC [27]: 1.08; log2FC [28]: -0.814; log2FC [29]: 0.495; log2FC [30]: 0.666; log2FC [31]: 1.5; log2FC [32]: -2.77
